Values from PubChem BioAssay AID686937 (Drosophila RNAi Screening Center, 2013).

Test: 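Genes in the fly needed for secretion of protein constitutively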 (primary screen)
Cells: Drosophila S2 cells expressing secreted horseradish peroxidase
Knock-down reagent: long dsRNA against Drosophila genes
Timing: about 5.5 days (5 days dsRNA, then 12 h reporter induction)
Conditions: reporter expression induced after 5 days of dsRNA, read 12 h later; inducer not stated
Measured: 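Chemiluminescent measurement of peroxidase in the medium 12 h after reporter induction, following 5 days of dsRNA, given as a z-score per plate; higher means more secretion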
Reading the numbers: z-score: higher = more reporter secreted into medium
The deposit covers about 23,000 reagents; below is an unselected part of those that have a named target and a result. 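Reduced-secretion tags in replicate 1 do not always agree with the z-scores; no criterion for assigning the tags was given.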 A plus sign joins genes that one reagent is predicted to hit. No sequences are given here. Not given: the amount of reagent.

no.	target	amplicon	z-score, replicate 1	z-score, replicate 2	z-score, replicate 3	z-score, replicate 4	phenotype, replicate 1
1	Orco	DRSC12358	0.24	0.58			
2	KdelR	DRSC03353	-1.61	-1.56			reduced secretion
3	RpS24	DRSC04414	-6.98	-4.02	0.41	0.28	reduced secretion
4	PEK	DRSC12361	0.04	0.26			
5	Cad96Cb	DRSC14243	-0.12	-0.68			
6	Cad96Cb	DRSC14665	0.45	0.37			
7	snRNA:U4atac	DRSC12055	0.61	0.45			
8	polyph	DRSC06254	-0.05	0.24			
9	mbl	DRSC05657	0.26	-0.42	0.31	-0.25	
10	mbl	DRSC06449	0.49	0.32			
11	mbl	DRSC07651	-0.84	-0.33			
12	CG3640	DRSC04399	0.32	0.38			
13	Rbp1	DRSC16817	0.34	0.46			
14	Spn53F	DRSC06022	0.24	0.24			
15	Eogt	DRSC00727	0.41	0.49			
16	CG5757	DRSC06951	0.34	0.21			
17	fbl	DRSC11886	-0.47	-1.25			
18	eIF4E3	DRSC10952	0.24	0.13			
19	CG3285	DRSC00589	0.18	0.41			
20	snRNA:U1:95Cc + snRNA:U1:95Cb	DRSC13641	0.81	0.93			
21	CG14540	DRSC14884	0.02	-0.12			
22	Pms2	DRSC07511	0.24	0.24			
23	pie	DRSC03590	0.22	0.27			
24	sing	DRSC19530	0.34	0.43			
25	CG33178	DRSC19950	0.12	0.43			
26	Agxt	DRSC18718	0.22	0.32			
27	Xbp1	DRSC04553	0.74	0.58			
28	Xbp1	DRSC21624	0.02	0.38			
29	pea	DRSC07120	-4.53	-3.62			reduced secretion
30	CG16896	DRSC04284	0.18	0.12			
31	Lint-1	DRSC19822	0.54	0.43			
32	Gmppb	DRSC12169	0.19	-0.14			
33	eEF1gamma	DRSC16659	-2.19	-2.3			reduced secretion
34	Acp63F	DRSC08137	0.31	-0.05			
35	AnxB11	DRSC19331	0.51	0.4			
36	CG11356	DRSC19401	0.31	0.58			
37	CG9044	DRSC03130	0.23	0.12			
38	CG32213 + CG12519 + 825-Oak + 1 more	DRSC09615	0.27	0.51	0.41	0.4	
39	lin	DRSC07644	0.41	0.36			
40	Tnks	DRSC14154	0.63	0.54			
41	CG32040	DRSC08981	0.6	0.61			
42	CG32040	DRSC22459	1.12	0.09			
43	CG15564	DRSC15102	-0.05	0.26			
44	CG9265	DRSC03178	0.25	0.46			
45	CG9265	DRSC03179	0.39	-0.37			
46	Muc55B	DRSC21440	0.11	0.47			
47	CG13442	DRSC06402	0.43	0.51			
48	Sting	DRSC06615	0.15	0.4			
49	CatB	DRSC03194	0.53	0.38			
50	Nt5a	DRSC08561	0.36	0.36			
51	tws	DRSC12767	0.22	0.42			
52	tws	DRSC17092	-0.02	0			
53	CG9903	DRSC20213	0.44	0.49			
54	IKKepsilon	DRSC03550	0.17	0.26			
55	mRpL28	DRSC02724	-0.45	-0.41			
56	eloF	DRSC15162	0.16	0.62			
57	ITP	DRSC04222	0.36	-0.05			
58	CG33233	DRSC08239	-0.01	0.13			
59	CG5704	DRSC08572	0.27	0.36			
60	CG33229	DRSC07863	-0.04	0.27			
61	Galphas	DRSC04616	0.23	0.05			
62	Kdm3	DRSC16393	0.1	0			
63	CG9040	DRSC11053	0.56	0.42			
64	CG32945	DRSC12014	0.43	-0.09			
65	magu	DRSC06832	0.27	0.22			
66	CG34210	DRSC04579	-0.01	0.15			
67	wapl	DRSC18851	0.22	0.21			
68	CG15040	DRSC19616	-0.86	0.39			
69	CG15040	DRSC21482	1.22	0.87			
70	CG33306	DRSC01899	0.21	0.06			
71	CG6048	DRSC18398	0.38	0.66			
72	CG33796	DRSC09417	0.08	-0.72			
73	Br140	DRSC06755	-0.09	-0.24			
74	HmgD	DRSC04619	0.41	0.55			
75	CG11168	DRSC14292	0.23	0.2			
76	Ykt6	DRSC17970	-2.23	-4.03			reduced secretion
77	qin	DRSC14782	0.1	0.28			
78	qin	DRSC14785	0.3	0.33			
79	CG32523	DRSC20510	0.18	0.17			
80	CG6059	DRSC15958	0.46	0.5			
81	Idh	DRSC10779	0.1	0.56			
82	mRpL36	DRSC10337	-0.14	-0.11			
83	CG1827	DRSC06719	0.41	0.36			
84	Polr2L	DRSC14630	-0.39	-2.87			
85	Eb1	DRSC05016	-0.18	0.1			
86	CG40485	DRSC20624	-0.42	0.26			
87	ple	DRSC11383	-0.08	-0.12			
88	CG13954	DRSC06442	0.13	0.22			
89	CG42365	DRSC04266	0.05	0.15			
90	CG34198	DRSC05803	-3.09	-2.17			reduced secretion
91	CG5466	DRSC15808	-4.04	-3.35			reduced secretion
92	CG30344	DRSC22510	0.09	0.25			
93	Spt20	DRSC10280	-3.46	-3.22			reduced secretion
94	Grl43a	DRSC06383	0.28	0.2			
95	CG1635	DRSC15131	0.09	0.32			
96	Gclc	DRSC18666	0.21	0.66			
97	Or43a	DRSC07485	0.44	0.34			
98	Med	DRSC16737	-1.55	-0.74			reduced secretion
99	CG11475	DRSC04113	0.47	0.31			
100	Crz	DRSC16615	0.29	0.31			
101	Burs	DRSC14595	0.45	0			
102	CG11668	DRSC14341	0.49	0.55			
103	CG4375	DRSC00653	0.12	0.31			
104	Gr22a	DRSC22283	-1.29	0.16			
